Values of other authors, collected in patent publication US20040091555A1 (priority 2003, published 2004).
For at least one compound, name, drawing or mass did not settle the structure.

System: HBV
Details: hepatitis B patients, one year of therapy

## Nc1ccn([C@@H]2CS[C@H](CO)O2)c(=O)n1 [lamivudine]
  HBeAg seroconversion rate to HBeAb: 22%
